In PMC7950270 one finds binding data, which are given here for one molecule.

The chains behind the UniProt entries cited, without tags or fusion partners. Residues count along the entry.
UniProt O00206, residues 24-839: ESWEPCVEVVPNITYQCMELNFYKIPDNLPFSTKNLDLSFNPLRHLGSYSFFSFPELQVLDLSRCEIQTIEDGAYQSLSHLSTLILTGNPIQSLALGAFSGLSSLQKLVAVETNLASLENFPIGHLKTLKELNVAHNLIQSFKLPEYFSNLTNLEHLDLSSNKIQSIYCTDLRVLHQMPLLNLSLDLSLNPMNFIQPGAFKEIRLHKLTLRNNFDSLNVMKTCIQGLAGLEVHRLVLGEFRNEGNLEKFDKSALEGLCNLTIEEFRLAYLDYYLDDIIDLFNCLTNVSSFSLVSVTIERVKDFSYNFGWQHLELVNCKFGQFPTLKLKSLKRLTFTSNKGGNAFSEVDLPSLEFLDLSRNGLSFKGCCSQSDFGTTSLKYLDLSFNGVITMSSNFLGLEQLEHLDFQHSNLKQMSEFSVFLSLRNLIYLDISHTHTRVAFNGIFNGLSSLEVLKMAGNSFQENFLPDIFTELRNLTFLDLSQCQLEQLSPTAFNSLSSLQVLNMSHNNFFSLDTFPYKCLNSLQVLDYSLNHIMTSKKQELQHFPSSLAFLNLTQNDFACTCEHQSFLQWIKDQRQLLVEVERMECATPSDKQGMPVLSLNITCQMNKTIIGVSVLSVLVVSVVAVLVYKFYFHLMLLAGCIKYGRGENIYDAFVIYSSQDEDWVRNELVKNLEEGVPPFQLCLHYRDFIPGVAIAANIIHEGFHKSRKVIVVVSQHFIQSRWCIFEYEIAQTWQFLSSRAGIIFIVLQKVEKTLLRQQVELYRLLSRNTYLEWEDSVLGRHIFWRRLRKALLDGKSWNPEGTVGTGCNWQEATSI

This test has as its target Toll-like receptor 4 (human (endogenous in primary OA chondrocytes)) (UniProt O00206). Kind of test: co-IP; lysate of primary human OA chondrocytes incubated with anti-TLR4 antibody, G-sepharose beads at 4 C overnight, MD-2 detected by immunoblot; cells untreated, treated with LPS (1 ug/mL, 2 h), with Linarin pretreatment plus LPS, or with Linarin alone. In general terms: Immunoblotting shows a protein as a band on a membrane.

These are yes or no findings as the source states them, for the method shown. In cells and extracts the contact can be indirect. Some binding calls cover weakened binding; strength is not graded here.

B1: myeloid differentiation protein-2 (protein, UniProt Q9Y6Y9 19-160)
chain: QKQYWVCNSSDASISYTYCDKMQYPISINVNPCIELKRSKGLLHIFYIPRRDLKQLYFNLYITVNTMNLPKRKEVICRGSDDDYSFCRALKGETVNTTISFSFKGIKFSKGKYKCVVEAISGSPEEMLFCLEFVILHQPNSN
B1: the binding entry is “binds”.
